Measured values from US11584744B2 (UNIVERSITY OF WASHINGTON, priority 2017, dated 2023).

Tested on: S. aureus
Experiment: Serum shift assays (MIC with and without 50% human serum)
Assay type: cell-based, Staphylococcus aureus
Settings: 50% human serum vs no serum
Method: Serum shift assays: To assess the role of protein binding on compound susceptibility, MIC determinations were performed in triplicate in the presence and absence of 50% human serum. Serial threefold dilutions of 2× compound were generated in MHB and aliquoted onto 96 well plates with a DMSO limit of 0.5%. Bacteria were adjusted to 1*10^8 CFUs/mL in MHB, then further diluted 1:100 in MHB and 100% heat deactivated filter sterilized pooled human serum. Fifty microliters were added to each well of the corresponding plates, and the plates were incubated at 37° C. for ˜20 h. The lowest concentration causing ≥90% growth inhibition was recorded as the MIC.

SMILES | Avg Fold-shift of MIC
CO[C@@H]1[C@@H](OC(N)=O)[C@@H](O)[C@H](Oc2ccc3c(O)c(NC(=O)c4ccc(O)c(CC=C(C)C)c4)c(=O)oc3c2C)OC1(C)C [NOV, novobiocin] | 158.6
CN[C@H](CC(C)C)C(=O)N[C@H]1C(=O)N[C@@H](CC(N)=O)C(=O)N[C@H]2C(=O)N[C@H]3C(=O)N[C@H](C(=O)N[C@H](C(=O)O)c4cc(O)cc(O)c4-c4cc3ccc4O)[C@H](O)c3ccc(c(Cl)c3)Oc3cc2cc(c3O[C@@H]2O[C@H](CO)[C@@H](O)[C@H](O)[C@H]2O[C@H]2C[C@](C)(N)[C@H](O)[C@H](C)O2)Oc2ccc(cc2Cl)[C@H]1O [VAN, vancomycin] | 1.7
